Measurements reported in PubChem BioAssay AID1259425 (University of Nebraska Medical Center, 2018)
The whole screen tested about 14,000 reagents; below is an unselected part. Further read-outs or replicates are left out here. Not stated in the record: the time to read-out.

- Assay: 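Compare each knockdown with KSR1 silencing using changes in marker transcripts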 (primary screen)
- Cell system: HCT116 human colon cancer cells
- Reagent: siRNA pool against human genes, 50 nM siRNA
- Read-out: 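mRNA of six signature genes measured together by branched-DNA assay after 50 nM siRNA pool, blank removed, divided by geometric mean of two housekeeping genes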
- Scale: BNIP3L mRNA: higher = more BNIP3L transcript after knockdown

gene	PubChem SID	BNIP3L mRNA, set 1
CIB3 (calcium and integrin binding family member 3)	SID364004453	0.155
CCDC198 (coiled-coil domain containing 198)	SID364000840	0.141
ATG4C (autophagy related 4C cysteine peptidase)	SID364004227	0.12
TMEM184C (transmembrane protein 184C)	SID364000905	0.0678
PPM1F (protein phosphatase, Mg2+/Mn2+ dependent 1F)	SID363999000	0.104
ACSBG2 (acyl-CoA synthetase bubblegum family member 2)	SID364003498	0.07
CDK6 (cyclin dependent kinase 6)	SID363992544	0.0811
KRT8 (keratin 8)	SID363993471	0.0772
ARHGAP19 (Rho GTPase activating protein 19)	SID364004263	0.109
ALDH2 (aldehyde dehydrogenase 2 family member)	SID363991989	0.101
DCTN6 (dynactin subunit 6)	SID363997362	0.0826
TM6SF1 (transmembrane 6 superfamily member 1)	SID364002610	0.0875
NOP16 (NOP16 nucleolar protein)	SID364000081	0.158
EXOC6 (exocyst complex component 6)	SID364001360	0.137
PAX5 (paired box 5)	SID364000266	0.0978
DRD1 (dopamine receptor D1)	SID363992084	0.182
ZNF770 (zinc finger protein 770)	SID363998599	0.198
CTNNBIP1 (catenin beta interacting protein 1)	SID364001593	0.116
PPP1R12B (protein phosphatase 1 regulatory subunit 12B)	SID363993654	0.126
MORF4 (mortality factor 4 (pseudogene))	SID363997560	0.218
CCDC14 (coiled-coil domain containing 14)	SID364002531	0.13
ELF5 (E74 like ETS transcription factor 5)	SID363992686	0.0769
MEST (mesoderm specific transcript)	SID363993580	0.0985
PEX19 (peroxisomal biogenesis factor 19)	SID363994013	0.153
RWDD3 (RWD domain containing 3)	SID363999529	0.0795
ZNF552 (zinc finger protein 552)	SID364003037	0.116
RETSAT (retinol saturase)	SID364000496	0.108
CDH24 (cadherin 24)	SID364002463	0.101
FGF13 (fibroblast growth factor 13)	SID363995124	0.103
GMEB2 (glucocorticoid modulatory element binding protein 2)	SID363998272	0.164
HIVEP2 (HIVEP zinc finger 2)	SID363997506	0.223
GLRA2 (glycine receptor alpha 2)	SID363993270	0.0483
POMP (proteasome maturation protein)	SID363999730	0.694
PFDN5 (prefoldin subunit 5)	SID363993792	0.088

2 successive entries already listed, quoted:
gene	PubChem SID	BNIP3L mRNA, set 1
GLRA2 (glycine receptor alpha 2)	SID363993270	0.0483
POMP (proteasome maturation protein)	SID363999730	0.694
